PubChem BioAssay AID540276 (National Center for Advancing Translational Sciences (NCATS), 2011)
“And” between values parts separate entries of the source, which are not always exact repeats. Equal values may be shown once. The campaign covered roughly 300,000 compounds. About 5,400 (1.8%) were called active. Inconclusive means that the source gave no clear call. Such entries were picked first, then a sample of the others. Calls follow the shape of the full dose curve; tested in HEK293 cells. Potencies beside an inconclusive call are fits to weak or partial responses and may not hold up.

test: qHTS for inhibitors of binding or entry into cells for Marburg Virus; conditions: Marburg virus pseudotyped entry inhibition, cell reporter; activity change, negative = inhibition: at 37.8 µM (top of the series) unless noted
% is scaled to controls: 0 for no effect and ±100 for the full control effect; potency is read from the fitted curve at half-maximal effect.

Row | SMILES | Potency | activity change, negative = inhibition
1 | CC1=NNC(=O)C1Br (stereo not given) | inconclusive: 2 µM [activator, partial curve, poor fit] | 
2 | Cc1ccccc1CSCC(=O)N/N=C/c1cccs1 | inconclusive: 12.6 µM [inhibitor, partial curve, poor fit] | 
3 | O=C1C=C(NCc2ccc3c(c2)OCO3)CC(c2ccccc2)C1 (stereo not given) | inconclusive: 3.16 µM [inhibitor, partial curve, poor fit] | 
4 | O=C1CCCC2=C1C1c3ccccc3C(=O)N1c1ccc(C(=O)c3ccccc3)cc1N2 (stereo not given) | inconclusive: 14.1 µM [inhibitor, single point] | 
5 | OCCN(CCO)c1ccc2ccccc2c1 |  | inactive: 5.32% [at 46.1 µM]
6 | CCCC1=C([O-])C2N=CC=CC2=[N+](c2ccccn2)C1=O (stereo not given) | inconclusive: 1.26 µM [activator, single point] | 
7 | Cc1ccc(C(=O)N2CCN(S(C)(=O)=O)C2)cc1 | inconclusive: 0.501 µM [activator, full curve, poor fit] | 
8 | CCCc1[nH][nH]c(=O)c1C(c1ccc(Br)cc1)C(C#N)C#N (stereo not given) |  | inactive: 2.22%
9 | Cc1ccc(CNCCC2=CCCCC2)cc1 | inconclusive: 29.1 µM [inhibitor, single point] | 
10 | CC1=C(C)C(c2ccccc2)NC(=S)N1 (stereo not given) | inconclusive: 35.5 µM [activator, single point] | 
11 | Cc1ccc(O)c(-c2cc(C(F)(F)C(F)F)[nH]n2)c1 |  | inactive: -16.9%
12 | CC(C)CC(=O)N1CCN(c2ccc([N+](=O)[O-])cc2Cl)CC1 | inconclusive: 23.1 µM [inhibitor, single point] | 
13 | Cn1c(-c2ccc(F)cc2)cnc1NCc1cc2c(cc1[N+](=O)[O-])OCO2 | inconclusive: 20.6 µM [inhibitor, single point] | 
14 | CS(=O)(=O)N(Cc1ccco1)CC(O)Cn1c2ccccc2c2ccccc21 (stereo not given) | inconclusive: 23.1 µM [inhibitor, single point] | 
15 | Cc1cc(C(=O)COc2ncnc3sccc23)c(C)n1C | inconclusive: 35.5 µM [inhibitor, single point] | 
16 | CCOC(=O)CNC(=O)CSc1nnc(NC(=O)c2ccc3c(c2)OCO3)s1 | inconclusive: 1.41 µM [inhibitor, full curve, poor fit] | 
17 | Cc1ccc(CN2C(=O)c3oc4ccc(C)cc4c(=O)c3C2c2ccc(O)cc2)cc1 (stereo not given) | inconclusive: 11.2 µM [activator, single point] | 
18 | C(=C\c1ccco1)/C1=NN(c2ccccc2)C(c2ccco2)C1 (stereo not given) | inconclusive: 1.3 µM [activator, partial curve] | 
19 | Cc1nn(-c2ccc([N+](=O)[O-])cc2)c2c1C(c1ccc(OC(F)F)cc1)N1C(=N2)C(=O)Nc2ccccc21 (stereo not given) | inconclusive: 3.98 µM [inhibitor, full curve, poor fit] | 
20 | COC(=O)C1=C(C)N(c2cccc(C)c2)C(=O)/C1=C\c1cccs1 | active: 2.82 µM | 
21 | CC(NCc1ccccc1)C1COc2ccccc2O1 (stereo not given) |  | inactive: -9.35%
22 | CCC(COC(=O)NC)NC(=O)Oc1ccccc1 (stereo not given) |  | inactive: 17.1%

An excerpt taken from the entries so far, for reference:
Row | SMILES | Potency | activity change, negative = inhibition
4 | O=C1CCCC2=C1C1c3ccccc3C(=O)N1c1ccc(C(=O)c3ccccc3)cc1N2 (stereo not given) | inconclusive: 14.1 µM [inhibitor, single point] | 
5 | OCCN(CCO)c1ccc2ccccc2c1 |  | inactive: 5.32% [at 46.1 µM]
6 | CCCC1=C([O-])C2N=CC=CC2=[N+](c2ccccn2)C1=O (stereo not given) | inconclusive: 1.26 µM [activator, single point] | 
7 | Cc1ccc(C(=O)N2CCN(S(C)(=O)=O)C2)cc1 | inconclusive: 0.501 µM [activator, full curve, poor fit] | 
8 | CCCc1[nH][nH]c(=O)c1C(c1ccc(Br)cc1)C(C#N)C#N (stereo not given) |  | inactive: 2.22%
9 | Cc1ccc(CNCCC2=CCCCC2)cc1 | inconclusive: 29.1 µM [inhibitor, single point] | 
10 | CC1=C(C)C(c2ccccc2)NC(=S)N1 (stereo not given) | inconclusive: 35.5 µM [activator, single point] | 
11 | Cc1ccc(O)c(-c2cc(C(F)(F)C(F)F)[nH]n2)c1 |  | inactive: -16.9%
12 | CC(C)CC(=O)N1CCN(c2ccc([N+](=O)[O-])cc2Cl)CC1 | inconclusive: 23.1 µM [inhibitor, single point] | 
13 | Cn1c(-c2ccc(F)cc2)cnc1NCc1cc2c(cc1[N+](=O)[O-])OCO2 | inconclusive: 20.6 µM [inhibitor, single point] | 
14 | CS(=O)(=O)N(Cc1ccco1)CC(O)Cn1c2ccccc2c2ccccc21 (stereo not given) | inconclusive: 23.1 µM [inhibitor, single point] | 
15 | Cc1cc(C(=O)COc2ncnc3sccc23)c(C)n1C | inconclusive: 35.5 µM [inhibitor, single point] | 
16 | CCOC(=O)CNC(=O)CSc1nnc(NC(=O)c2ccc3c(c2)OCO3)s1 | inconclusive: 1.41 µM [inhibitor, full curve, poor fit] | 
17 | Cc1ccc(CN2C(=O)c3oc4ccc(C)cc4c(=O)c3C2c2ccc(O)cc2)cc1 (stereo not given) | inconclusive: 11.2 µM [activator, single point] | 
18 | C(=C\c1ccco1)/C1=NN(c2ccccc2)C(c2ccco2)C1 (stereo not given) | inconclusive: 1.3 µM [activator, partial curve] | 
19 | Cc1nn(-c2ccc([N+](=O)[O-])cc2)c2c1C(c1ccc(OC(F)F)cc1)N1C(=N2)C(=O)Nc2ccccc21 (stereo not given) | inconclusive: 3.98 µM [inhibitor, full curve, poor fit] | 

Later entries:

Row | SMILES | Potency | activity change, negative = inhibition
23 | O=C1COc2ccc(S(=O)(=O)N3CCN(c4cccc(C(F)(F)F)c4)CC3)cc2N1 |  | inactive: -27.5% [at 46.1 µM]
24 | CN(C)C(CNC(=O)c1cc(S(=O)(=O)N(C)c2ccc(F)cc2)ccc1Cl)c1cccs1 (stereo not given) | inconclusive: 7.94 µM [inhibitor, single point] | 
25 | CCCCCn1c(-c2ccc(OC)c(OC)c2)nc2ccccc21 | inconclusive: 14.1 µM [inhibitor, single point] | 
26 | Cn1ccsc1=NC(=O)c1ccc(Cl)cc1 | inconclusive: 2.82 µM [activator, partial curve, poor fit] | 
27 | CN(C)S(=O)(=O)c1cccc(N=c2scc(-c3ccc4c(c3)NC(=O)CO4)n2CC2CCCO2)c1 (stereo not given) | inconclusive: 35.5 µM [inhibitor, single point] | 
28 | CC(C)C(=O)Nc1ccc([N+](=O)[O-])c(C(F)(F)F)c1 | inconclusive: 4.61 µM [activator, single point] and inconclusive: 3.55 µM [inhibitor, single point] | 
29 | COc1ccc(-n2c(O)c(/C=N/NS(=O)(=O)c3cc(C)ccc3C)c3ccccc3c2=O)cc1OC | inconclusive: 1.78 µM [inhibitor, single point] | 
30 | Cc1cc(C)cc(-n2ncc3c2CCCC3NC(=O)c2cc(C)[nH]n2)c1 (stereo not given) | active: 3.55 µM | 
31 | COc1ccc(CCNC(=O)C23CCC(C)(C(=O)C2=O)C3(C)C)cc1OC (stereo not given) | inconclusive: 0.562 µM [activator, full curve, poor fit] | 
32 | O=C(CSc1nnc(-c2ccccn2)n1Cc1ccccc1)N1CCCC1 | inconclusive: 12.6 µM [activator, single point] | 
33 | COCCC(=O)N1CCC(Oc2ccc(C(=O)N3CCCC(CCCO)C3)cc2)CC1 (stereo not given) |  | inactive: -1.93%
34 | CC(OC(=O)CCC(=O)c1cccs1)C(=O)Nc1ccc(Cl)cn1 (stereo not given) | inconclusive: 0.199 µM [activator, partial curve, poor fit] | 
35 | CCc1ccc(-n2c(Cc3ccccc3)nnc2SCc2nc(-c3cccs3)no2)cc1 | inconclusive: 17.8 µM [inhibitor, single point] | 
36 | Nc1c(-c2ccccc2)nc(Cl)nc1-c1ccccc1 | inconclusive: 2.24 µM [activator, single point] | 
37 | C=CCn1c(CCCOc2ccc(Cl)cc2Cl)n[nH]c1=S |  | inactive: -18.8%
38 | CC(C)(COC(=O)C(c1ccccc1)c1ccccc1)CN1CCOCC1 | inconclusive: 35.5 µM [inhibitor, partial curve, poor fit] | 
39 | Cc1nn(-c2ccccc2)c(Cl)c1/C=C/C(=O)c1ccccc1 |  | inactive: -13%
40 | COc1ccc(CC(=O)NCC(=O)N/N=C/c2c[nH]c3ccccc23)cc1 |  | inactive: 23.6%
41 | Cn1ccnc1SCC(=O)Nc1ccccc1 | inconclusive: 0.0891 µM [activator, full curve, poor fit] | 
42 | Cc1ccc(C)n1-c1nnc(N2CCCC(C(=O)NCc3cccc(Cl)c3)C2)s1 (stereo not given) | inconclusive: 0.708 µM [activator, partial curve, poor fit] | 
43 | CC(=O)c1ccc(NC(=O)CN2CCN(CC(=O)Nc3ccc(C(C)=O)cc3)CC2)cc1 | inconclusive: 31.6 µM [activator, single point] | 
44 | COC(=O)C1CC(=O)c2ccsc2C1 (stereo not given) | inconclusive: 12.6 µM [activator, partial curve, poor fit] | 

Row | SMILES | Potency | activity change, negative = inhibition
45 | COc1ccc(N(C)S(=O)(=O)c2cccc(C(=O)Nc3cc(OC)ccc3OC)c2)cc1 | inconclusive: 8.91 µM [inhibitor, full curve, poor fit] | 
46 | CC(C)CCOc1ccc(C(=O)NCC(c2ccco2)N(C)C)cc1 (stereo not given) | inconclusive: 35.5 µM [inhibitor, partial curve, poor fit] | 
47 | Cc1ccc(-n2nc(C)c(/C=N/NC(=O)c3cccs3)c2Cl)cc1 | inconclusive: 12.6 µM [inhibitor, partial curve, poor fit] | 
48 | Cc1c(C(=O)Nc2nccs2)sc2nc(-c3cccs3)cc(C(F)(F)F)c12 | inconclusive: 20.6 µM [inhibitor, partial curve, poor fit] | 
49 | CC(=NCCc1c(C)[nH]c2ccc(OC(F)(F)F)cc12)C1=C(O)CC(c2ccccc2)CC1=O (stereo not given) | inconclusive: 10 µM [inhibitor, partial curve, poor fit] | 
50 | COC(=O)/C(=C/c1cccnc1)NC(=O)c1ccccc1 |  | inactive: 26.2%
51 | Cc1ccc2c(c1)Oc1ccc([N+](=O)[O-])cc1C(=O)N2 | inconclusive: 0.316 µM [inhibitor, full curve, poor fit] | 
52 | COc1ccc(Cc2c(O)nc(SCC(=O)c3ccc(OC)cc3)[nH]c2=O)cc1 | inconclusive: 3.16 µM [activator, single point] | 
53 | CS(=O)(=O)N1CCN(c2ccccc2NC(=S)NC(=O)c2cccs2)CC1 | inconclusive: 35.5 µM [inhibitor, single point] | 
54 | COc1cc(Cl)c(C)cc1NC(=O)CNC(C)c1ccccc1OC (stereo not given) | inconclusive: 35.5 µM [inhibitor, single point] | 
55 | Cc1ccc(C(=O)N/C(=C\c2ccc(Cl)cc2)C(=O)NCCCN2CCOCC2)cc1 | inconclusive: 35.5 µM [inhibitor, single point] | 
56 | Cc1ccc(CS(=O)Cc2ccc(C(=O)NC3CCCCC3)o2)cc1 (stereo not given) |  | inactive: 6.84% [at 46.1 µM]
57 | CC(C)NC(=O)c1cc(-c2ccco2)on1 | inconclusive: 9.2 µM [activator, partial curve] | 
58 | COc1ccc(-c2sc(NC(=O)c3ccc(C)cc3)nc2-c2ccc([N+](=O)[O-])cc2)cc1 | inconclusive: 0.794 µM [inhibitor, full curve] | 
59 | COc1ccc(NCc2nnc(SCC#N)n2-c2ccccc2OC)cc1 | inconclusive: 0.631 µM [inhibitor, partial curve, poor fit] | 
60 | CC1CCCN(c2oc(-c3cccc4ccccc34)nc2C#N)C1 (stereo not given) |  | inactive: 14.7%
61 | Cc1cccc(OCCn2cccc2/C=C2/C(=O)NC(=O)N(Cc3ccco3)C2=O)c1 |  | inactive: 6.35% [at 46.1 µM]
62 | Cc1cc(NC(=O)CCC(=O)N(Cc2ccco2)C2(C(=O)NC3CCCC3)CCCCC2)no1 | inconclusive: 15.8 µM [inhibitor, single point] | 
63 | CC(C)NC(=S)Nc1ccc(S(=O)(=O)Nc2ncccn2)cc1 | inconclusive: 35.5 µM [activator, partial curve, poor fit] | 
64 | COCCn1c(C)cc(C(=O)COC(=O)c2ccc3c(c2)NC(=O)CS3)c1C | inconclusive: 5.62 µM [activator, single point] | 
65 | Cc1ccc(NC(=O)c2cc(-c3ccccc3O)n[nH]2)cc1Cl |  | inactive: 8.58% [at 46.1 µM]
